# Reference: PubChem BioAssay AID2685 (National Center for Advancing Translational Sciences (NCATS), 2010)
# Some of the results follow. Further columns of the screen follow, without active or inactive calls. The list favours compounds with an active or inconclusive main result. The note in brackets gives the kind of curve behind each potency; many fits are weak.
# Experiment: qHTS Assay for Lipid Storage Modulators in Drosophila S3 Cells;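 for cell number change: cells counted by Cell Tracker Red CMTPX staining in the red channel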
# Conditions: BODIPY lipid droplet fluorescence, 18-24 h; for cell number change: measured here: cell count max response, cells fed with added oleic acid
# Method in brief: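 Drosophila S3 cells got compounds at several concentrations plus oleic acid (400 uM solution). Laser-scanning cytometry with 488 nm excitation read lipid droplets at 500-530 nm and cells at 575-640 nm. Percent activity was relative to 20 uM Triacsin C.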
# [1] = measured here: lipid fluorescence (Fed channel) AC50, cells fed with added oleic acid
# [2] = measured here: cell number channel AC50, cells fed with added oleic acid
SMILES,cell number change,AC50 [1],AC50 [2]
Cc1noc(C)c1CSCC(=O)Oc1ccc(N(C)S(=O)(=O)c2ccccc2)cc1,-0.226%,"0.00517 µM [falling, full curve, poor fit]",
CCc1ccc(NC(=O)CN2CCc3ccccc3C2)cc1,8.38%,"0.58 µM [falling, single point]","7.31 µM [rising, single point]"
O=C(NCCN1C(=O)S/C(=C\c2ccc(OC(F)F)cc2)C1=O)c1cnccn1,9.73%,"23.1 µM [rising, partial curve]",
Cc1ccc(CN(C(=O)C(F)(F)F)C(C(=O)NC2CCCCC2)c2ccco2)cc1 (configuration not stated),-18.5%,"18.4 µM [falling, single point]",
O=C(/C=C/c1ccccc1)NCc1ccco1,-6.26%,"4.11 µM [falling, partial curve, poor fit]",
CC(Nc1cc(N2CCN(C(=O)C(C)(C)C)CC2)ccc1[N+](=O)[O-])c1ccccc1 (configuration not stated),68.2%,,
Cc1ccc(/C=C\c2nccc3c2[nH]c2ccccc23)cc1,2.02%,"0.146 µM [falling, full curve, poor fit]","0.146 µM [falling, full curve, poor fit]"
Cc1ccc(CC(=O)NCc2ccc(Cl)cc2)cc1,-20.9%,"1.3 µM [falling, partial curve, poor fit]",
CC1(C)CC(=O)c2cc(NC(=O)c3ccc(F)cc3)c(=O)oc2C1,20%,"29.1 µM [rising, single point]",
COc1ccc(-c2cc(C)no2)cc1S(=O)(=O)N(C)c1cccc(C)c1,-21.6%,"20.6 µM [falling, single point]",
CCOC(=O)COn1c(-c2cccc(Cl)c2)nc2ccc([N+](=O)[O-])cc21,25.2%,"18.4 µM [rising, single point]",
O=C(NCc1cn2ccccc2n1)c1ccc2c(c1)OCO2,56.5%,"18.4 µM [rising, partial curve]","11.6 µM [rising, partial curve]"
Cn1c2ccccc2c(=O)c2ccc(F)cc21,24.9%,"0.92 µM [falling, full curve, poor fit]",
c1ccc(CCn2c(SCc3ccccc3)nnc2-c2ccncc2)cc1,1.48%,"0.103 µM [rising, full curve, poor fit]","0.103 µM [rising, full curve, poor fit]"
Cc1ccc(-c2n[nH]c(=O)c3ccccc23)cc1S(=O)(=O)NC(C)(C)C,-15.6%,"20.6 µM [falling, single point]",
CC12CCC(C(=O)N(CCC#N)CCC#N)(CC1=O)C2(C)C (configuration not stated),1.76%,"23.1 µM [falling, single point]",
COc1ccc(S(=O)(=O)NCC2CCCN(Cc3ccc(OC)cc3F)C2)cc1 (configuration not stated),-13.9%,"6.51 µM [rising, single point]",
O=C(COc1ccc2ccc(=O)oc2c1)Nc1ccc2c(c1)OCCO2,16%,,"0.0058 µM [rising, full curve, poor fit]"
CC(OC(=O)CNC(=O)COc1ccccc1)C(=O)N(C)Cc1ccccc1 (configuration not stated),-24.1%,,"0.0058 µM [falling, full curve, poor fit]"

# Only cell number change and AC50 [2] (2 entries from above):
SMILES	cell number change	AC50 [2]
Cc1ccc(CN(C(=O)C(F)(F)F)C(C(=O)NC2CCCCC2)c2ccco2)cc1 (configuration not stated)	-18.5%	
O=C(/C=C/c1ccccc1)NCc1ccco1	-6.26%	

# Going on with the list:

SMILES,cell number change,AC50 [1],AC50 [2]
O=C(CCNC(=O)C1CCN(S(=O)(=O)c2ccc(F)cc2)CC1)Nc1nccs1,17.2%,,
CCC1SC2=NC(C)=C(C(=O)OCC(C)C)C(/C=C/c3ccccc3OC)N2C1=O (configuration not stated),-8.33%,"16.4 µM [falling, single point]",
Cn1c(=O)c2c(ncn2CC(O)CNc2cccc(Cl)c2)n(C)c1=O (configuration not stated),-2.24%,"11.6 µM [falling, partial curve]",
C=CCNC(=S)N1CCN(c2ncc(C(F)(F)F)cc2Cl)CC1,-49.5%,,
COc1cc(NC(=O)C2CCN(c3cnccn3)CC2)cc(OC)c1OC,-12.7%,"18.4 µM [rising, partial curve]",
CC(C)CCNC(=O)CCCOc1ccccc1,0.931%,"0.00461 µM [falling, full curve, poor fit]",
COc1ccc2ccccc2c1CNCc1ccccn1,-4.45%,,"0.517 µM [falling, single point]"
O=C(CCCOc1ccc(Cl)cc1)NCC1CCCO1 (configuration not stated),-44.1%,,"8.2 µM [falling, partial curve]"
CCc1nnc(SCC(=O)Nc2ccc(N3CCOCC3)cc2)o1,-10.1%,"10.3 µM [falling, partial curve]",
O=C(O)c1ccc(CSCc2ccccc2F)o1,-78.8%,,"29.1 µM [falling, single point]"
CCn1c(SCC(=O)Nc2cc(C)on2)nnc1-c1ccc(S(=O)(=O)N2CCCC2)cc1,10.3%,"6.51 µM [falling, single point]","0.231 µM [falling, full curve, poor fit]"
Cc1cc(-c2[nH]nc3c2C(c2ccc(Cl)cc2)C(C#N)=C(N)O3)c(C)s1 (configuration not stated),-49.7%,"18.4 µM [falling, single point]","29.1 µM [falling, single point]"
CS(=O)(=O)c1ccc2nc(NC(=O)C3CC(=O)N(c4ccccc4)C3)sc2c1 (configuration not stated),-2.08%,,
CCOC(=O)N1CCN(C(=O)CSCC(=O)N=c2sc3ccccc3n2C)CC1,67.1%,"0.731 µM [rising, full curve]","25.9 µM [rising, single point]"
CCOc1ccc(C(=O)Nc2nncs2)cc1OCC,,,"5.8 µM [falling, single point]"
Cc1cc(C)nc(N(C#N)Cc2ccccc2C)n1,24.9%,"32.6 µM [rising, single point]",
Cc1c(C(=O)OCC(=O)c2ccc3c(c2)OCCO3)oc2ccccc12,-12.1%,,
NS(=O)(=O)c1ccc(CCNC(=O)c2cc3ccccc3oc2=O)cc1,34.3%,"29.1 µM [falling, single point]","0.146 µM [rising, full curve, poor fit]"
CCN(C(=O)CSc1nnc(-c2cccs2)o1)C1CCS(=O)(=O)C1 (configuration not stated),,"0.116 µM [falling, single point]",
